Results of single-concentration screens

Measurements from “University of Dundee, Small-Polar-MMV Screening Library” (2021), ChEMBL document CHEMBL3988442.

A: 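Whole-cell growth test on Mycobacterium tuberculosis, read after 4 days in a medium based on cholesterol and the lipid DPPC; the read-out is not stated. Tested at 50 µM. Higher reads as more growth inhibition (inferred: compounds with an IC50 in retests scored well above the rest). About 69,000 compounds were tested under these conditions; 0.54% (about 370) showed 50% or more at least once.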
B: 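Growth of Mycobacterium tuberculosis over 3 days (7H9 medium with glucose and tyloxapol); the read-out is not stated. Tested at 50 µM. Higher reads as more growth inhibition (inferred: compounds with an IC50 in retests scored well above the rest). About 69,000 compounds were tested under these conditions; 1.1% (about 760) showed 50% or more at least once.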

Values are the deposited “Percent Effect”, in %. How 0% and 100% were set is not recorded. Most values in the screen are low, and negative values occur. This is an unselected part of the compounds tested. Two or more numbers in one place are separate tests of the same structure; such repeats can differ widely.

Cc1ccc(NC(=O)C2CSCN2C(=O)c2cnccn2)c(C)c1 (configuration not stated) read A: 5.604%; B: -18.33%.
Cc1cc(C)c(CNC(=O)N2CCN(c3ccccn3)CC2)c(=O)[nH]1 read A: 3.437%; B: -5.025%.
O=C(O)C(c1ccc2c(c1)OCO2)N1CCCCCC1 (configuration not stated) read A: 6.857% and -29.1%; B: -8.073%.
Fc1cnc(N2CCCn3c(nnc3Cn3ccnc3)C2)nc1.O=C(O)C(F)(F)F read A: -0.2994%; B: -20.53%.
CN(C)C1CCN(C(=O)C2SCCc3ccccc32)CC1 (configuration not stated) read A: 6.434%; B: -0.5769% and 21.9%.
CC(C#N)CN(C)C(=O)c1cn(-c2ccc(Br)cc2)cn1 (configuration not stated) read A: -7.321%; B: 14.5%.
CN1Cc2c(C(=O)N3CCOCC3)ncn2-c2ccccc2S1(=O)=O read A: -19%; B: -6.433% and -0.7787%.
Cc1nn(C)c(Cl)c1C1CCCN1C(=O)c1ccnc(N(C)C)c1 (configuration not stated) read A: -19.09%; B: -18.88%.
O=C(O)C(=O)O.c1cc(CN2CCC(c3ccc4c(c3)OCO4)CC2)ccn1 read A: -4.483% and 16.21%; B: 9.056%.
CC(C)(C)c1ccn(C2(C(=O)O)CCN(c3nccc(N)n3)CC2)n1 read A: -13.47%; B: -11.61% and -15.56%.
CCCn1nccc1-c1nccnc1CC1CCN(C(C)=O)C1 (configuration not stated) read A: 12.18%; B: 23.33%.
O=C(O)C(F)(F)F.O=C(O)C(F)(F)F.[H][C@@]12CC(=O)N(c3cccnc3)[C@@]1([H])CCN2Cc1ccc(C)o1 read A: -19.58%; B: -8.224% and -28.6%.
[H][C@@]12CN(Cc3ccc(S(C)(=O)=O)cc3)C[C@]1([H])OCC(=O)N2CC(N)=O read A: 9.995%; B: 11.05% and 2.154%.
Cc1cnn(CC2CN(Cc3nnc(C4CC4)n3C)CCO2)c1 (configuration not stated) read A: -5.154%; B: -26.05%.
CCc1nsc(N2CCn3c(nnc3-c3ccccc3)C2)n1 read A: 9.04%; B: 0.1657% and -11.05%.
Cc1nc(C)n(CC2CCCN2c2ncnc3ccsc23)n1 (configuration not stated) read A: -20.57%; B: -0.6787%.
COc1ccccc1-c1ccc(NCc2cn3c(n2)SCC3)nn1 read A: 8.344%; B: 20.9% and -1.975%.
Cc1cnn(CC(=O)N2CCCN(c3ncccc3C#N)CC2)c1 read A: 21.22%; B: -8.08%.
COc1cccc(CCC2CCCN(C(=O)c3n[nH]c4c3CCC4)C2)c1 (configuration not stated) read A: -5.149%; B: 20%.
Nc1cc(C(=O)NC2CCCN(CCCc3ccccc3)C2)ccn1 (configuration not stated) read A: -23.33%; B: -12.51%.
O=C(O)C1(Cc2cc(-c3ccccc3F)no2)CCOCC1 read A: -27.69%; B: -20.38%.
CC/C=C(/C)C(=O)NCc1ccnc(OC2CCOCC2)c1 read A: 13.85%; B: 29.7%.
CNc1nc2c(c(C(=O)N3CCCC3)n1)CN(C(=O)C1CCCC1)CC2 read A: 2.36%; B: -26.41%.
Cc1cccc(-n2nc(CC(C)C)nc2CCn2ccc(=O)[nH]c2=O)c1 read A: -0.629% and -6.816%; B: 21.98%.
CN1CCC(c2cncc(-c3cccc(Cl)c3)n2)CC1 read A: 34.47%; B: 23.13%.
Oc1nnc(-c2ccccc2)c2sc(N3CCCCC3)nc12 read A: 20.79%; B: 0.3353%.
COc1ccc(C(=O)Nc2ccc3ncn(C(C)C)c(=O)c3c2)cc1 read A: 38.42%; B: 20.97% and 43.15%.
CCNC(=O)NC(=O)CNC1(c2noc(C)n2)CCCC1 read A: -18.71%; B: -9.15%.
COc1ccccc1C(=O)Nc1nc2c(s1)CN(S(=O)(=O)C1CC1)CC2 read A: -18.32%; B: -15.31%.
CN(C)CCOC1CC2(CCN(c3cnccn3)CC2)c2ccccc21.O=C(O)C(F)(F)F (configuration not stated) read A: -13.3%; B: -35.33% and -2.32%.
CC(C)CCN1CCc2[nH]nc(C(=O)N3CCCC3C)c2C1.O=C(O)C(F)(F)F (configuration not stated) read A: 16.59%; B: -8.565%.
CC(C)N(Cc1ccc(C(F)(F)F)nc1)Cc1cnn(C)c1 read A: -1.242%; B: -2.106% and 0.9747%.

Repeated from the top, 2 entries:

{"smiles": "Cc1ccc(NC(=O)C2CSCN2C(=O)c2cnccn2)c(C)c1", "stereo": "configuration not stated", "A": 5.604, "B": -18.33}
{"smiles": "Cc1cc(C)c(CNC(=O)N2CCN(c3ccccn3)CC2)c(=O)[nH]1", "A": 3.437, "B": -5.025}